Chains of the proteins cited; added tags and fusions are not shown. Lines headed by an entry give the natural chain unless they say otherwise; changes in a name come on top.
UniProt Q07812: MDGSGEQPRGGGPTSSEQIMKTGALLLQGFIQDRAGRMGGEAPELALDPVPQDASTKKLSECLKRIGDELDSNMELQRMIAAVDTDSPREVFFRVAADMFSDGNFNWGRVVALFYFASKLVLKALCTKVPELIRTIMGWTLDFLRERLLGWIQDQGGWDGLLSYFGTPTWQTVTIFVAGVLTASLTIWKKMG
UniProt O75317: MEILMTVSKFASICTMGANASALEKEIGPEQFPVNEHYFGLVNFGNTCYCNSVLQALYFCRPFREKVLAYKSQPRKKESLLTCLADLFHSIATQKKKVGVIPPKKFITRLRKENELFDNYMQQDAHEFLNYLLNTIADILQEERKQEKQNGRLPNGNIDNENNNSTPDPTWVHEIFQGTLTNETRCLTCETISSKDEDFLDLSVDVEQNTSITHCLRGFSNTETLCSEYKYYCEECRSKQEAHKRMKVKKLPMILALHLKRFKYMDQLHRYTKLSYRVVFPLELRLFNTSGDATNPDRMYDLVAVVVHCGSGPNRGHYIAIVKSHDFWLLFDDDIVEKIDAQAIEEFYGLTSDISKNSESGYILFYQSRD

According to article PMC9657785:

Target: GST-Bax (pGEX-4T-3-Bax) (human (cDNA from HeLa cells)) (UniProt Q07812)
Assay: pull-down; GST-Bax from E. coli BL21 (DE3) as bait; bound protein detected by Western blotting; source of USP12 not stated

binding: binds
Substance: ubiquitin-specific protease 12 (USP12), as used in the immunoprecipitation and GST pull-down (from UniProt O75317 1-370) (enzyme)

No constants are given. Whether binding was seen depends on the method and setting. Binding seen in cells or lysates may run through a third protein. A result given as binding can be weak or reduced; the word gives no strength.
